Results on 67 molecules are retold here after the supplement of paper PMC7580552.

Structures can show the parent of a compound that is named as a salt. The list shows a part of the results. Baselines shift from plate to plate; read single values as rough.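 A K-12 lab model strain is cultured statically in 96-well plates; biofilm is measured as the absorbance of crystal violet stain retained in the wells. Drugs counted as candidate specific biofilm blockers if they strongly reduced staining while slowing planktonic growth by under 70%.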

The test has as its system Escherichia coli W3110. Kind of test: biofilm formation (crystal violet staining) relative to untreated control; higher = more biofilm. The following applies: 10 µM; 20-24 h; 30 °C; TB.
On to `O=C(O)c1cn(C2CC2)c2cc(N3CCNCC3)c(F)cc2c1=O` [Ciprofloxacin hydrochloride monohydrate], for which the biofilm formation stood at 9%.

Regarding `CCOc1nc2cccc(C(=O)OCc3oc(=O)oc3C)c2n1Cc1ccc(-c2ccccc2-c2noc(=O)[nH]2)cc1` [Azilsartan kamedoxomil], the biofilm formation was determined as 65%.

Consider `Nc1ccccc1S(N)(=O)=O` [2-Aminobenzenesulfonamide], for which the biofilm formation came to 49%.

In the case of `COc1ccccc1Oc1c(NS(=O)(=O)c2ccc(C(C)(C)C)cc2)nc(-c2ncccn2)nc1OCCO` [Bosentan], the biofilm formation was 97%.

Turning to `CN(C)CCC=C1c2ccccc2COc2ccccc21` [Doxepin hydrochloride], the biofilm formation came out at 53%.

In turn, `CC(C)[N+](C)(CCOC(=O)C1c2ccccc2Oc2ccccc21)C(C)C` [Propantheline bromide] came in with a biofilm formation of 65%.

Regarding `CCC[C@@H]1C[C@@H](C(=O)N[C@@H]([C@H]2O[C@H](SC)[C@H](O)[C@@H](O)[C@H]2O)[C@H](C)Cl)N(C)C1` [Clindamycin hydrochloride], the biofilm formation turned out to be 47%.

`O=C(N[C@H](CO)[C@H](O)c1ccc([N+](=O)[O-])cc1)C(Cl)Cl` [Chloramphenicol] gave a biofilm formation of 32%.

Consider `C=C1/C(=C\C=C2/CCC[C@]3(C)[C@@H]([C@H](C)CCCC(C)C)CC[C@@H]23)C[C@@H](O)C[C@@H]1O` [Alfacalcidol], for which the biofilm formation was 52%.

In turn, `Cc1ccc2c(c1)c1c3n2CCNC3CCC1` (configuration not stated) [Pirlindole mesylate] displayed a biofilm formation of 81%.

`CCN(CC)CCNC(=O)c1cc(Cl)c(N)cc1OC` [Metoclopramide monohydrochloride] gave a biofilm formation of 61%.

For the molecule `CCOc1ccc2ccccc2c1C(=O)N[C@@H]1C(=O)N2[C@@H]1SC(C)(C)[C@@H]2C(=O)O` [Nafcillin sodium salt monohydrate], the biofilm formation came out at 64%.

As for `CC(C)(CO)C(O)C(=O)NCCCO` (configuration not stated) [Panthenol (D)], the biofilm formation was 71%.

Regarding `CN(C)C/C=C(/c1ccc(Br)cc1)c1cccnc1` [Zimelidine dihydrochloride monohydrate], the biofilm formation was 57%.

As for `Cn1cnc2c1c(=O)[nH]c(=O)n2C` [Theobromine], the biofilm formation was determined as 83%.

For `Cc1c(-c2ccccc2)oc2c(C(=O)OCCN3CCCCC3)cccc2c1=O` [Flavoxate hydrochloride], the biofilm formation amounted to 70%.

`CN[C@@H]1[C@@H](O[C@H]2O[C@H](CO)[C@@H](N)[C@H](O)[C@H]2O)OC2C[C@@H](N)[C@@H](O[C@H]3[C@H](O)[C@@H](O)[C@H](N)C[C@@H]3N)OC2[C@@H]1O` (some centres not stated) [Apramycin] gave a biofilm formation of 72%.

`Cc1onc(-c2ccccc2Cl)c1C(=O)N[C@@H]1C(=O)N2[C@@H]1SC(C)(C)[C@@H]2C(=O)O` [Cloxacillin sodium salt] displayed a biofilm formation of 50%.

Turning to `N[C@@H](C(=O)N[C@@H]1C(=O)N2C(C(=O)O)=C(Cl)CC[C@H]12)c1ccccc1` [Loracarbef], the biofilm formation was determined as 86%.

`C#Cc1cccc(Nc2ncnc3cc(OCCOC)c(OCCOC)cc23)c1` [Erlotinib]: the biofilm formation is 87%.

As for `CC(C)Nc1cccnc1N1CCN(C(=O)c2cc3cc(NS(C)(=O)=O)ccc3[nH]2)CC1` [Delavirdine], the biofilm formation amounted to 84%.

`NS(=O)(=O)c1cc2c(cc1Cl)NC(C(Cl)Cl)NS2(=O)=O` (configuration not stated) [Trichlormethiazide] showed a biofilm formation of 57%.

Molecule `CN[C@@H]1[C@H](O)[C@H](NC)[C@H]2O[C@@]3(O)C(=O)C[C@@H](C)O[C@H]3O[C@@H]2[C@H]1O` [Spectinomycin dihydrochloride] had a biofilm formation of 41%.

On to `C[C@H]1O[C@@H](O[C@H]2[C@@H](O)C[C@H](O[C@H]3[C@@H](O)C[C@H](O[C@H]4CC[C@@]5(C)[C@H](CC[C@@H]6[C@@H]5C[C@@H](O)[C@]5(C)[C@@H](C7=CC(=O)OC7)CC[C@]65O)C4)O[C@@H]3C)O[C@@H]2C)C[C@H](O)[C@@H]1O` [Digoxin], for which the biofilm formation stood at 72%.

For the molecule `O=C(OCC(O)CO)c1ccccc1Nc1ccnc2cc(Cl)ccc12` (configuration not stated) [Glafenine hydrochloride], the biofilm formation came out at 66%.

For the molecule `CC(C(=O)O)c1ccc(-c2ccccc2)c(F)c1` (configuration not stated) [Flurbiprofen], the biofilm formation was determined as 106%.

For the molecule `Cc1ccccc1C(=O)Nc1ccc(C(=O)N2CCCC(O)c3cc(Cl)ccc32)c(C)c1` (configuration not stated) [Tolvaptan], the biofilm formation was found to be 87%.

`CN(C)C(=O)C(CCN1CCC(O)(c2ccc(Cl)cc2)CC1)(c1ccccc1)c1ccccc1` [Loperamide hydrochloride] came in with a biofilm formation of 78%.

For the molecule `CCCCc1cc2ccccc2c(OCCN(C)C)n1` [Dimethisoquin hydrochloride], the biofilm formation amounted to 77%.

As to `CC(C(=O)O)c1ccc2c(c1)[nH]c1ccc(Cl)cc12` (configuration not stated) [Carprofen], the biofilm formation was 78%.

Molecule `Cc1cccc(C)c1NC(=O)C(C)N` (configuration not stated) [Tocainide hydrochloride] registered a biofilm formation of 66%.

Turning to `Cc1c(N(C)C)c(=O)n(-c2ccccc2)n1C` [Amidopyrine], the biofilm formation came to 72%.

Regarding `Oc1c(Cl)cc(Cl)c(Cl)c1Cc1c(O)c(Cl)cc(Cl)c1Cl` [Hexachlorophene], the biofilm formation is 82%.

Molecule `COc1ccc(/C=C/C(=O)Nc2ccccc2C(=O)O)cc1OC` [Tranilast] came in with a biofilm formation of 97%.

The molecule `CCOC(=O)C1=C(COCCN)NC(C)=C(C(=O)OC)C1c1ccccc1Cl` (configuration not stated) [Amlodipine] came in with a biofilm formation of 92%.

Regarding `CN1[C@@H]2CC[C@H]1C[C@@H](OC(=O)c1c[nH]c3ccccc13)C2` [Tropisetron hydrochloride], the biofilm formation was 115%.

The molecule `Cc1cccc(C)c1OCC(C)N` (configuration not stated) [Mexiletine hydrochloride] displayed a biofilm formation of 76%.

`N#Cc1cc(NC(=O)C(=O)O)c(Cl)c(NC(=O)C(=O)O)c1` [Lodoxamide] showed a biofilm formation of 99%.

As for `Nc1nc(CC(=O)Nc2ccc(CCNC[C@H](O)c3ccccc3)cc2)cs1` [Mirabegron], the biofilm formation amounted to 54%.

In turn, `NC[C@@H]1O[C@H](O[C@H]2[C@@H](O)[C@H](O[C@@H]3[C@@H](O)[C@H](N)C[C@H](N)[C@H]3O[C@H]3O[C@H](CO)[C@@H](O)[C@H](O)[C@H]3N)O[C@@H]2CO)[C@H](N)[C@@H](O)[C@@H]1O` [Paromomycin sulfate] had a biofilm formation of 50%.

In turn, `COc1ccccc1OCC(O)CO` (configuration not stated) [Guaifenesin] yielded a biofilm formation of 65%.

`CC(=O)[C@H]1CC[C@H]2[C@@H]3C=CC4=CC(=O)CC[C@@]4(C)[C@@H]3CC[C@]12C` [Dydrogesterone] displayed a biofilm formation of 63%.

In turn, `CN(C)CCOC(C)(c1ccccc1)c1ccccn1` (configuration not stated) [Doxylamine succinate] registered a biofilm formation of 68%.

In turn, `CC(=O)c1ccc2c(c1)N(CCCN(C)C)c1ccccc1S2` [Acetopromazine maleate salt] had a biofilm formation of 62%.

For the molecule `Oc1c(I)cc(Cl)c2cccnc12` [Clioquinol], the biofilm formation is 11%.

In turn, `CC(C)(C#N)c1cc(Cn2cncn2)cc(C(C)(C)C#N)c1` [Anastrozole] yielded a biofilm formation of 103%.

In turn, `CN(C(=O)C(Cl)Cl)c1ccc(OC(=O)c2ccco2)cc1` [Diloxanide furoate] showed a biofilm formation of 54%.

For the molecule `Nc1ccn([C@H]2CC[C@@H](CO)O2)c(=O)n1` [Zalcitabine], the biofilm formation turned out to be 94%.

The molecule `CN1CCN(CCCN2c3ccccc3Sc3ccc(C(F)(F)F)cc32)CC1` [Trifluoperazine dihydrochloride] returned a biofilm formation of 85%.

The molecule `COc1ccc(OC)c(C(O)CNC(=O)CN)c1` (configuration not stated) [Midodrine hydrochloride] came in with a biofilm formation of 84%.

Turning to `CN(C)CCN1C(=O)c2ccccc2N(C)c2ccccc21` [Dibenzepine hydrochloride], the biofilm formation came out at 73%.

For `OC(CNCC(O)C1CCc2cc(F)ccc2O1)C1CCc2cc(F)ccc2O1` (configuration not stated) [Nebivolol hydrochloride], the biofilm formation was determined as 72%.

The molecule `CC[C@H](C)[C@H](N)C1=N[C@H](C(=O)N[C@@H](CC(C)C)C(=O)N[C@H](CCC(=O)O)C(=O)N[C@H](C(=O)N[C@H]2CCCCNC(=O)[C@H](CC(N)=O)NC(=O)[C@@H](CC(=O)O)NC(=O)[C@H](Cc3cnc[nH]3)NC(=O)[C@@H](Cc3ccccc3)NC(=O)[C@H]([C@@H](C)CC)NC(=O)[C@@H](CCCN)NC2=O)[C@@H](C)CC)CS1` [Bacitracin] had a biofilm formation of 29%.

`CC(=O)NCCCS(=O)(=O)O` [Acamprosate calcium] showed a biofilm formation of 101%.

The molecule `CCOC(=O)O[C@]1(C(=O)COC(=O)CC)CC[C@H]2[C@@H]3CCC4=CC(=O)C=C[C@]4(C)[C@H]3[C@@H](O)C[C@@]21C` [Prednicarbate] yielded a biofilm formation of 69%.

In the case of `CC(C)(C)NCC(O)COc1cccc2c1CCC(=O)N2` (configuration not stated) [Carteolol hydrochloride], the biofilm formation turned out to be 70%.

As for `C=C1c2c(Cl)ccc(O)c2C(=O)C2=C(O)[C@]3(O)C(=O)C(C(N)=O)=C(O)[C@@H](N(C)C)[C@@H]3[C@@H](O)[C@H]12.O=C(O)c1cc(S(=O)(=O)O)ccc1O` [Meclocycline sulfosalicylate], the biofilm formation was determined as 45%.

Take `COc1ccc2c(c1)c(CC(=O)O)c(C)n2C(=O)c1ccc(Cl)cc1` [Indomethacin]: the biofilm formation came to 48%.

`CN1CCC(=C2c3ccccc3CCc3cccnc32)CC1` [Azatadine maleate] returned a biofilm formation of 97%.

In turn, `Nc1nc2ccc(OC(F)(F)F)cc2s1` [Riluzole hydrochloride] registered a biofilm formation of 60%.

`C(=C\c1ccccc1)/CN1CCN(C(c2ccccc2)c2ccccc2)CC1` [Cinnarizine] had a biofilm formation of 48%.

Molecule `O=C(C1CCCCC1)N1CC(=O)N2CCc3ccccc3C2C1` (configuration not stated) [Praziquantel] registered a biofilm formation of 62%.

Turning to `CC(C(=O)O)c1ccc2c(c1)Cc1cccnc1O2` (configuration not stated) [Pranoprofen], the biofilm formation was 67%.

Molecule `CSc1ccc2c(c1)C(N1CCN(C)CC1)Cc1ccccc1S2` (configuration not stated) [Methiothepin maleate] had a biofilm formation of 59%.

`Cc1c(C)c2c(c(C)c1O)CCC(C)(COc1ccc(CC3SC(=O)NC3=O)cc1)O2` (configuration not stated) [Troglitazone] came in with a biofilm formation of 82%.

In turn, `COC(c1ccccc1)(c1ccccc1)[C@H](Oc1nc(C)cc(C)n1)C(=O)O` [Ambrisentan] showed a biofilm formation of 78%.

`COc1ccc([C@@H]2CC(=O)c3c(O)cc(O[C@@H]4O[C@H](CO[C@@H]5O[C@@H](C)[C@H](O)[C@@H](O)[C@H]5O)[C@@H](O)[C@H](O)[C@H]4O)cc3O2)cc1O` [Hesperidin]: the biofilm formation stood at 82%.
